From PubChem BioAssay AID2685 (National Center for Advancing Translational Sciences (NCATS), 2010) come the findings set out here.

The list shows a part of the results. Further columns of the screen follow, without active or inactive calls. Most of these compounds were active or inconclusive in the main read-out, so they are no random draw. Words in brackets tell the shape of the fitted curve; partial curves, single points and poor fits give uncertain potencies.

The nature of this experiment: qHTS Assay for Lipid Storage Modulators in Drosophila S3 Cells.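 For cell number change: cells counted by Cell Tracker Red CMTPX staining in the red channel.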 The conditions noted are these: BODIPY lipid droplet fluorescence, 18-24 h; for cell number change: measured here: cell count max response, cells fed with added oleic acid. The procedure, abridged:
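Laser-scanning cytometry quantifies lipid droplet accumulation (500–530 nm total intensity; droplet/cell object ratio) in oleic acid-fed (400 uM added) Drosophila S3 cells treated with a concentration series. 20 uM Triacsin C defined 100% inhibition.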
For orientation: In qHTS, concentration-response curves come from the screen itself.

Where [1] appears, read: measured here: lipid fluorescence (Fed channel) AC50, cells fed with added oleic acid.
Setting [2] is: measured here: cell number channel AC50, cells fed with added oleic acid.

One may read the AC50 as the midpoint of the concentration-response curve, whichever way the signal moves. A high value points to activity only at high concentration. As for `Cc1ccc(S(=O)(=O)N2C(=O)C(C)SC2=Nc2ccccc2)cc1` (centres undefined), the cell number change worked out at 0.943%. For the same molecule, the AC50 under setting [1] was 0.058 µM [falling, full curve, poor fit].

As to `N=Nc1c(O)n(CC(=O)Nc2ccccc2)c2ccccc12`, the cell number change is -12.6%. Moreover, the AC50 under setting [2] was 4.11 µM [falling, single point]. The concentration at half-maximal activity (AC50) under setting [1] is 1.16 µM [falling, single point].

Regarding `COc1ccc(C(=O)/C=C/Nc2cc(C)on2)c(OC)c1`, the cell number change turned out to be 9.25%. Under setting [1], the AC50 was 0.651 µM [rising, full curve]. For `O=c1cc(O)c2sc(Nc3ccc(F)c(Cl)c3)nc2[nH]1`, the cell number change stood at 8.83%. Moreover, the half-maximal activity concentration (AC50) under setting [2] was 2.91 µM [rising, single point].

For `COc1cc(S(=O)(=O)NCCN2CCOCC2)ccc1-n1cnnn1`, the cell number change is -17.2%. For the same molecule, the concentration at half-maximal activity (AC50) under setting [1] is 0.00461 µM [falling, full curve, poor fit]. As to `c1ccc2c3n(nc2c1)CCCCO3`, the cell number change stood at 10.7%. Also, under setting [2], the AC50 was 0.116 µM [falling, single point]. `CCc1ccc(-c2cc(C)no2)cc1S(=O)(=O)N1CCN(c2ccccc2F)CC1`: the cell number change was found to be 27.1%. In addition, the AC50 under setting [1] is 9.2 µM [rising, partial curve].

As for `O=c1c2ccccc2nc(-c2ccco2)n1Cc1ccccc1`, the cell number change was -21.8%. In addition, under setting [1], the AC50 was 23.1 µM [rising, partial curve]. For the molecule `CCOC(=O)c1[nH]c2cc3c(cc2c1NC(=O)CN1CCc2ccccc2C1)OCO3`, the cell number change is -20.4%. Also, the AC50 under setting [1] is 2.31 µM [falling, single point]. Turning to `CC12CCC(C(=O)Nc3nc4ccc(Br)cc4s3)(OC1=O)C2(C)C` (centres undefined), the cell number change was -49.5%. With `O=C(Nc1ccccc1C(=O)NCc1ccc(Cl)cc1)c1ccco1`, the cell number change is -15.9%. Under setting [1], the AC50 is 0.58 µM [rising, single point].

Consider `CCN(C(=O)COc1cccnc1[N+](=O)[O-])C1CCS(=O)(=O)C1` (centres undefined), for which the cell number change was -17.8%. For the same molecule, the AC50 under setting [1] is 0.00651 µM [falling, full curve, poor fit]. `CCn1c(C)cc(/C=C2/NC(=O)N(Cc3ccccc3F)C2=O)c1C`: the concentration at half-maximal activity (AC50) under setting [1] was 0.651 µM [rising, full curve, poor fit].

For `O=C(Nc1ccccn1)C1(c2cccs2)CCOCC1`, the cell number change is -7.85%. Also, the AC50 under setting [1] is 14.6 µM [rising, partial curve, poor fit].

`Cc1ccc(C)c(NC(=O)CN(C)C(=O)Cc2coc3cc(C)c(C)cc23)c1`: under setting [2], the AC50 was 0.082 µM [falling, full curve]. On to `O=C(NC(=S)N1CCc2ccccc21)c1ccccc1Cl`, for which the cell number change amounted to 9.46%. In the case of `CC(C(=O)Nc1cccc([N+](=O)[O-])c1)[n+]1ccccc1` (centres undefined), the cell number change is -19.5%. Also, the AC50 under setting [1] is 20.6 µM [falling, single point]. Regarding `O=C(Nc1cccc(Cl)c1)c1ccc(F)c(S(=O)(=O)N2CCN(c3ccccn3)CC2)c1`, the cell number change is 12.3%. Consider `COc1ccc(NC(=S)N2CCC(c3nc4ccccc4[nH]3)CC2)c(OC)c1`, for which the half-maximal activity concentration (AC50) under setting [2] is 2.31 µM [rising, partial curve].

As to `CCCCC(=O)Nc1ccccc1CC`, the cell number change was found to be 24.1%. For the same molecule, the AC50 under setting [2] was 2.59 µM [rising, single point].

With `Cc1cc(C)n(-c2nc(NCCCN(C)C)c3c4c(sc3n2)COC(C)(C)C4)n1`, the cell number change worked out at 18.1%.

With `O=C(CN1CCc2ccccc2C1)Nc1ccc(OC(F)(F)F)cc1`, the cell number change was -22.6%. In addition, the AC50 under setting [1] was 29.1 µM [falling, single point]. Turning to `Cc1ccc(OCCC(=O)O)cc1`, the cell number change is -2.44%. Further, the AC50 under setting [1] is 0.0058 µM [falling, full curve, poor fit]. As for `CSc1nc(-c2ccc(Cl)cc2Cl)[nH]c(=O)c1C#N`, the AC50 under setting [1] is 16.4 µM [falling, partial curve, poor fit]. As for `O=c1c2ccccc2c(C=NCCc2ccccc2)c(O)n1Cc1ccccc1`, the cell number change worked out at 69.7%. For the same molecule, the AC50 under setting [1] is 18.4 µM [rising, partial curve]. As for `O=C(N/C(=C\c1ccc(Cl)cc1)C(=O)N1CCOCC1)c1ccco1`, the cell number change turned out to be 15.1%. The AC50 under setting [1] is 29.1 µM [falling, single point]. With `C=CCN(C(=O)c1csnn1)C(C(=O)NC1CCCC1)c1ccc(F)cc1` (centres undefined), the cell number change was -2.56%. On to `Cc1ccc(O)c(C(CC(=O)NCc2ccco2)c2ccccc2)c1` (centres undefined), for which the cell number change was -16.1%. Besides, under setting [1], the AC50 is 6.51 µM [falling, single point].

For the molecule `COc1ccc(/C=C/C(=O)Nc2sc(Cc3ccccc3)c(C)c2C(N)=O)cc1`, the cell number change was determined as 13.2%. In addition, the AC50 under setting [1] was 3.66 µM [rising, single point]. For `COC(=O)c1nn(-c2ccccc2)c(=O)cc1O`, the cell number change is -24.1%. `O=C(CSc1ccccc1C(=O)O)Nc1cccc(C(=O)O)c1`: the cell number change came out at 5.15%. Under setting [1], the AC50 was 18.4 µM [falling, single point].

`COc1cccc(Sc2cc(N3CCOCC3)nc(-c3ccccc3)n2)c1`: the cell number change turned out to be 40%. The AC50 under setting [2] was 8.2 µM [rising, partial curve]. Besides, under setting [1], the AC50 is 0.731 µM [rising, full curve, poor fit].

Turning to `CCOc1ccc(NC(=O)c2ccc(F)c(S(=O)(=O)N3CCN(c4ccccn4)CC3)c2)cc1`, the cell number change was -26.3%. Besides, the AC50 under setting [1] is 11.6 µM [falling, partial curve, poor fit]. On to `O=C(C1CCC(CNc2nc(=S)[nH]c3ccccc23)CC1)N1CCN(c2ccccn2)CC1` (centres undefined), for which the cell number change is -34.3%. Besides, under setting [2], the AC50 is 29.1 µM [falling, single point]. The AC50 under setting [1] is 16.4 µM [falling, single point]. As to `COc1cccc(NC(=O)CN(C)CC(=O)NCc2ccco2)c1`, the cell number change is -7.23%. For the same molecule, under setting [1], the AC50 is 0.082 µM [rising, full curve, poor fit]. For `O=C(O)C1NCCc2ccccc21` (centres undefined), the cell number change was -19.6%. Further, the AC50 under setting [2] is 4.61 µM [falling, partial curve, poor fit]. Moreover, under setting [1], the AC50 is 10.3 µM [falling, partial curve]. Turning to `Cn1cnnc1SCC(=O)Nc1ccc(N2CCCCC2)cc1`, the cell number change was 38.5%. Under setting [2], the AC50 was 29.1 µM [rising, single point]. Further, the AC50 under setting [1] was 29.1 µM [rising, single point]. Regarding `CCN1CCc2c(sc(NC(=O)c3ccc(S(=O)(=O)N4CCOCC4)cc3)c2C(=O)OC)C1`, the cell number change is -38.1%. The AC50 under setting [2] is 6.51 µM [falling, full curve, poor fit]. Turning to `COc1ccc(C(=O)N2CCC(C(=O)Nc3ccc4c(c3)OCO4)CC2)cc1`, the cell number change amounted to 24%. Regarding `O=C(CN1C(=O)C(=O)N(C2CCCC2)C1=O)NCCc1ccc(Cl)cc1Cl`, under setting [1], the AC50 is 0.164 µM [falling, full curve, poor fit].

Take `CCCCOc1ccc(OCCCC)c2c1NC1(N2)C(=O)N(C(C)=O)c2ccccc21`: the cell number change stood at 115%. In addition, the AC50 under setting [2] is 20.6 µM [rising, partial curve]. Also, the half-maximal activity concentration (AC50) under setting [1] is 29.1 µM [rising, single point]. As for `COc1ccc(C(=O)NC2(C(F)(F)F)NC(=O)N(CCCc3ccccc3)C2=O)c(OC)c1OC` (centres undefined), the cell number change is -32.7%. Besides, the AC50 under setting [2] was 11.6 µM [falling, partial curve]. Besides, the AC50 under setting [1] was 18.4 µM [falling, single point]. Turning to `Nc1nc(NCCOCCO)nc(NCc2ccccc2)c1[N+](=O)[O-]`, the cell number change turned out to be 45%. The AC50 under setting [2] is 2.91 µM [rising, full curve]. Turning to `Cc1ccc(-c2noc(CSc3nnc(Cc4cccs4)n3-c3ccccc3)n2)cc1`, under setting [1], the AC50 was 0.651 µM [rising, full curve].

For `Cc1cc2c(=O)n(C)c(SCC(=O)c3cc4ccccc4o3)nc2s1`, the cell number change is 4.03%. As to `Cc1ccccc1N1CCN(C(=O)C2CCC(=O)N(C3CCCC3)C2)CC1` (centres undefined), the cell number change is -2.45%. For the same molecule, under setting [1], the AC50 is 0.0517 µM [rising, full curve, poor fit]. For the molecule `O=C(NCc1ccccc1)c1csc2c1CCCCC2`, the AC50 under setting [2] was 6.51 µM [falling, single point].

Take `CN1CCc2c(sc3nc(SCC(=O)N4CCOCC4)nc(N)c23)C1`: the cell number change is -1.24%.

Consider `Cc1cc(OCC(=O)NC2CCN(Cc3ccccc3)CC2)c2c(C)c(C)c(=O)oc2c1`, for which the cell number change was determined as 10.8%. Moreover, the AC50 under setting [1] was 1.84 µM [rising, partial curve]. Consider `O=C(Nc1ccc(Br)cc1)c1cccc(N2C(=O)C3C4C=CC(C4)C3C2=O)c1` (centres undefined), for which the cell number change is -25.7%. Under setting [1], the AC50 was 16.4 µM [falling, single point]. Turning to `CC1Cc2ccccc2N1C(=O)CSc1ncc(-c2ccc(F)cc2)n1C` (centres undefined), the cell number change amounted to 9.67%. Further, the AC50 under setting [1] is 2.59 µM [rising, single point]. Take `CC1(C)CC2(CC(c3ccccc3F)c3ccc(O)c(O)c3O2)NC(=S)N1` (centres undefined): the cell number change came out at 7.95%. Besides, under setting [1], the AC50 is 23.1 µM [rising, partial curve, poor fit]. `S=c1nc(-c2ccccc2Br)[nH][nH]1`: the cell number change was -31.8%. Further, the AC50 under setting [2] is 0.00517 µM [falling, full curve, poor fit]. For the same molecule, the AC50 under setting [1] is 0.00461 µM [falling, full curve, poor fit].

For `Cc1cccc(C)c1NC(=O)C1CCN(C(=O)c2cccs2)CC1`, the cell number change is 20%. For the same molecule, under setting [2], the AC50 was 0.00411 µM [rising, full curve, poor fit]. Moreover, the AC50 under setting [1] was 8.2 µM [rising, partial curve]. For `O=C(O)c1cc(S(=O)(=O)N(Cc2ccccc2)c2ccc(Cl)cc2)ccc1Cl`, the cell number change turned out to be 2.78%. Further, under setting [2], the AC50 was 0.291 µM [rising, partial curve, poor fit]. Besides, the AC50 under setting [1] was 6.51 µM [rising, single point].

Turning to `O=C(O)c1c2c(nc3ccc(S(=O)(=O)N4CCC(C(=O)NC5CCCC5)CC4)cc13)CCCCC2`, the cell number change is -3.31%. In addition, the AC50 under setting [1] is 29.1 µM [falling, single point]. In the case of `CCOC(=O)c1ccc2c(c1)nc(COc1ccc(OC)cc1)n2CC`, the cell number change was -13.4%. Besides, the AC50 under setting [1] is 1.16 µM [rising, full curve]. As for `CC(C)NC(=O)c1ccc(COc2ccc(C(C)(C)C)cc2)o1`, the cell number change is -49.1%. Further, the AC50 under setting [2] was 20.6 µM [falling, single point]. For the same molecule, the AC50 under setting [1] is 20.6 µM [falling, single point].

Regarding `CSCCC(NC(=O)C1CCC(C)CC1)C(=O)NCCN1CCOCC1` (centres undefined), the cell number change is -18.8%. Besides, under setting [1], the AC50 is 0.146 µM [falling, full curve]. Take `Cc1ccc(-c2nc(CS(=O)(=O)CC(=O)NCc3ccc4c(c3)OCO4)c(C)o2)cc1`: the cell number change came out at 1.18%.
